# About 13,000 (3.2%) of roughly 400,000 compounds were called active. Inconclusive results, whose numbers are uncertain, are shown with a selection of clear calls. The call rests on the fitted dose curve; in most records, active means well fitted cell-killing curve with a large enough effect; inconclusive means small, poorly fitted or top-dose-only effect, or effect the other way; inactive means flat fitted curve, though single readings scatter. Potencies beside an inconclusive call are fits to weak or partial responses and may not hold up.
# Experiment: qHTS assay for MDR1-selective chemotherapeutics: Primary screen using the drug-selected MDR subline cells KB-V1; further: nearly all actives have a fitted effect of over 60% in size
# Conditions: KB-V1 MDR cells viability, CellTiter-Glo, 72 h; activity change, negative = cytotoxicity: at 46.1 µM (top of the series)
# How it was run: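 Luminescent ATP read-out (CellTiter-Glo, 10 min) measures survival of drug-selected KB-V1 MDR cells after 72 h, 37 degrees C compound exposure. Medium: phenol-red-free DMEM, 10% FBS. Values from fitted concentration-response curves.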
# On the % scale 0 is the no-effect control and ±100 the full control effect; potency means the concentration at half of the fitted maximal effect.
Compound,Potency,"activity change, negative = cytotoxicity"
CC(=O)Nc1cccc(C(=O)OC(C)C(=O)NC(=O)NC2CCCCC2)c1 (stereo not drawn),"inconclusive: 18.4 µM [cytotoxic, single point]",–
CCCNC(=O)C1CCC(Cn2c(=O)c3sccc3n(CC(=O)N(CC)CC)c2=O)CC1 (stereo not drawn),–,inconclusive: -25.8%
Cc1ccc(CN(Cc2ccco2)C(=S)NCC(=O)NC2CC2)cc1,"inconclusive: 23.1 µM [cytotoxic, single point]",–
Cc1cc(NC(=O)CSc2n[nH]c(-c3ccc(Cl)cc3Cl)n2)no1,–,inactive: -3.57%
O=C(Nc1ccc2[nH]ncc2c1)c1ccc(F)cc1,–,inconclusive: 8.67%
Cc1ccc[n+](CC(=O)N2CCCc3ccccc32)c1,"inconclusive: 16.4 µM [rising, single point]",–
COC(=O)[C@]12CCCCC=C1N(Cc1cccc3ccccc13)C(=O)[C@H](CC(=O)NCc1cccc(C(F)(F)F)c1)C2,active: 9.2 µM,–
CCOc1ccccc1C(=O)NCC(=O)NCCCc1ccccc1,"inconclusive: 7.31 µM [cytotoxic, partial curve]",–
CCC1SC2=NC(C)=C(C(=O)OC)C(c3ccc(C)cc3)N2C1=O (stereo not drawn),–,inactive: 5.55%
COc1ccccc1NC(=O)c1cc(-c2cc(OC)c(OC)c(OC)c2)nc2ccccc12,"inconclusive: 20.6 µM [cytotoxic, partial curve, poor fit]",–
O=C(NC1CCN(S(=O)(=O)c2ccc(F)cc2)CC1)c1cccnc1,–,inactive: 12.3%
CCN(CC)C(=O)c1nn(-c2ccccc2)c2c1C1CCC2(C)C1(C)C (stereo not drawn),"inconclusive: 29.1 µM [cytotoxic, single point]",–
COCCn1cnc2c1c(=O)n(Cc1ccc(Br)cc1)c(=O)n2Cc1ccccc1,"inconclusive: 8.2 µM [cytotoxic, partial curve]",–
CC1CCc2c(sc(NC(=O)/C=C/c3cccs3)c2C(=O)O)C1 (stereo not drawn),–,inactive: -5.24%
COc1cc(/C=N/NC(=O)c2ccncc2)ccc1OC(=O)c1cccc(F)c1,–,inactive: -10.1%
O=C(c1ccc(S(=O)(=O)NCc2ccco2)cc1)N1CCN(c2ccc(F)cc2)CC1,–,inactive: -4.77%
CCCCCC(=O)N1C[C@@H](n2cc(COC(=O)c3ccccc3)nn2)[C@H](O)C[C@@H]1c1ccc(Cl)cc1,"inconclusive: 18.4 µM [rising, single point]",–
COc1ccc(CNC(=O)C(c2ccco2)N(C(=O)Cc2cccs2)c2cccnc2)cc1 (stereo not drawn),"inconclusive: 7.31 µM [cytotoxic, partial curve]",–
Cn1nc([N+](=O)[O-])nc1S(C)(=O)=O,"inconclusive: 29.1 µM [cytotoxic, single point]",–
O=C(CSc1nnnn1-c1ccc2c(c1)OCCO2)N1CCN(C(=O)c2ccco2)CC1,"inconclusive: 18.4 µM [cytotoxic, partial curve]",–
C[C@H](CO)N1C[C@H](C)[C@@H](CN(C)Cc2ccccc2)OCCCC[C@H](C)Oc2ccc(N(C)C)cc2C1=O,–,inactive: 5.82%
Nc1cc(=O)[nH]c(SCc2csc(-c3ccccc3)n2)n1,active: 16.4 µM,–
Cc1ccc(/C=C2\SC(=S)N(CCC(=O)N3CCOCC3)C2=O)cc1,"inconclusive: 29.1 µM [cytotoxic, single point]",–
O=C(CCS(=O)(=O)c1cccc2nsnc12)NC1CCCCC1,"inconclusive: 20.6 µM [cytotoxic, single point]",–
O=C(NCCN1CCOCC1)/C(=C/c1ccc(Cl)cc1)NC(=O)c1ccccc1,–,inactive: -4.54%

Compound,Potency,"activity change, negative = cytotoxicity"
COC(=O)c1ccc(NC(=O)Nc2ccc3c(c2)nc(C)n3C)cc1,"inconclusive: 29.1 µM [rising, single point]",–
CCN(CC)C(=O)COC(=O)c1cc(-c2ccco2)nc2ccccc12,"inconclusive: 6.51 µM [cytotoxic, full curve]",–
CCOC(=O)c1nc(NCCc2ccccc2)sc1C,–,inactive: 10.9%
O=C(Nc1cccc(C(=O)O)c1)/C(=C\c1ccc2c(c1)OCO2)NC(=O)c1ccccc1Br,–,inactive: 13.2%
Cc1n[nH]c(=S)n1/N=C/c1ccc(-c2ccc(Cl)cc2)o1,"inconclusive: 9.2 µM [rising, partial curve, poor fit]",–
CCc1nc(N2CCN(S(C)(=O)=O)CC2)c2c3c(sc2n1)CCCC3,"inconclusive: 29.1 µM [cytotoxic, single point]",–
Cn1c(NCc2ccco2)nc2c1c(=O)n(Cc1ccc(Cl)cc1)c(=O)n2C,"inconclusive: 8.2 µM [cytotoxic, partial curve, poor fit]",–
COc1cc(C(=O)Nc2ccc3c(c2)CCN3C(C)=O)cc(OC)c1OC,"inconclusive: 16.4 µM [cytotoxic, single point]",–
NC(=O)c1cccc(-c2ccnc3c2CC(C(=O)NCC2CC2)O3)c1 (stereo not drawn),–,inactive: 1.47%
COc1ccc(C(=O)N2CCN(c3cccc(Cl)c3)CC2)c(OC)c1,"inconclusive: 29.1 µM [cytotoxic, single point]",–
CC1=C(C(=O)Nc2cc(Cl)ccc2C)C(c2ccccc2F)n2ncnc2N1 (stereo not drawn),active: 18.4 µM,–
CCc1ccccc1NC(=O)c1cc(-c2ccc(OC)cc2)on1,"inconclusive: 5.17 µM [rising, partial curve, poor fit]",–
Cc1cccc(CN2CCN(C3CN(Cc4ccc([N+](=O)[O-])cc4)S(=O)(=O)C3)CC2)c1 (stereo not drawn),–,inactive: 14.5%
CCCCN(CCCC)Cc1cc2ccccc2c2c1COC2,–,inactive: 0%
CC(C)c1cc(NC(=O)CCl)on1,–,inactive: -19.9%
Cc1ccc(Oc2ccc(OCC(=O)NC3CCS(=O)(=O)C3)cc2)cc1 (stereo not drawn),"inconclusive: 25.9 µM [cytotoxic, single point]",–
COc1ccc(C(=O)NCC(c2ccco2)N2CCc3ccccc3C2)cc1 (stereo not drawn),"inconclusive: 9.2 µM [cytotoxic, partial curve]",–
O=C(Nc1cnn(Cc2ccc(F)cc2)c1)C(c1ccccc1)c1ccccc1,active: 5.17 µM,–
COc1cccc2cc(C(=O)CC3(O)C(=O)N(Cc4ccccc4)c4ccccc43)c(=O)oc12 (stereo not drawn),–,inactive: 2.8%
CCOc1cc2[nH]c(=O)n(CCCC(=O)N(C)Cc3ccccc3)c(=O)c2cc1OCC,"inconclusive: 14.6 µM [cytotoxic, single point]",–
Cc1ccc(C(=O)N/N=C(\CC(C)C)c2ccccc2)cc1,"inconclusive: 18.4 µM [cytotoxic, single point]",–
CN(C)S(=O)(=O)c1ccc(Cl)c(NC(=O)C2CCN(S(=O)(=O)c3cccs3)CC2)c1,–,inactive: -26.1%
COc1cn(-c2ccccc2)nc1C(=O)NCc1ccccc1,–,inactive: -25.2%
Cc1ccccc1NC(C)C(=O)N/N=C/c1ccccc1OCc1cccc(Br)c1 (stereo not drawn),"inconclusive: 29.1 µM [cytotoxic, single point]",–
O=C(Nc1c(Cl)ccc2nsnc12)c1ccco1,–,inactive: -6.55%

# Five entries already listed, ordered by number of heavy atoms, smallest number first.
Compound,Potency,"activity change, negative = cytotoxicity"
COc1cn(-c2ccccc2)nc1C(=O)NCc1ccccc1,–,inactive: -25.2%
Cc1ccc(/C=C2\SC(=S)N(CCC(=O)N3CCOCC3)C2=O)cc1,"inconclusive: 29.1 µM [cytotoxic, single point]",–
Cc1ccc(Oc2ccc(OCC(=O)NC3CCS(=O)(=O)C3)cc2)cc1 (stereo not drawn),"inconclusive: 25.9 µM [cytotoxic, single point]",–
CC1=C(C(=O)Nc2cc(Cl)ccc2C)C(c2ccccc2F)n2ncnc2N1 (stereo not drawn),active: 18.4 µM,–
O=C(Nc1cnn(Cc2ccc(F)cc2)c1)C(c1ccccc1)c1ccccc1,active: 5.17 µM,–

# Following part:

Compound,Potency,"activity change, negative = cytotoxicity"
CCc1nnc(NC(=O)c2ccc(S(=O)(=O)N(CCOC)CCOC)cc2)o1,"inconclusive: 25.9 µM [cytotoxic, single point]",–
COc1ccccc1C(=O)C1CCCN(C(=O)c2cc(CC(C)C)nc(C)n2)C1 (stereo not drawn),"inconclusive: 29.1 µM [cytotoxic, single point]",–
O=C(Nc1ccccc1C(=O)Nc1ccc(Br)cn1)c1ccccc1Cl,"inconclusive: 16.4 µM [cytotoxic, partial curve]",–
Cc1ccc2[nH]c(=O)c(CN(CCO)Cc3nnnn3CCc3ccccc3)cc2c1,"inconclusive: 29.1 µM [cytotoxic, single point]",–
Cc1ccccc1OCCC(=O)Nc1cc(S(=O)(=O)N2CCCCC2)ccc1N1CCN(C)CC1,–,inactive: -0.96%
C=C(C)COc1ccc(-c2n[nH]c(C)c2-c2ccccc2OC)c(O)c1,"inconclusive: 16.4 µM [cytotoxic, single point]",–
COc1ccc(Cl)cc1NC(=O)C(OC)c1ccccc1 (stereo not drawn),"inconclusive: 7.31 µM [cytotoxic, partial curve]",–
Cc1ccccc1N1CC(C(=O)N2CCCCCC2)CC1=O (stereo not drawn),–,inactive: -5.87%
CC(=O)c1cccc(NC(=O)COc2ccc3oc(=O)cc(C)c3c2)c1,–,inactive: 22.4%
O=[N+]([O-])c1nccn1CCCCCCN1CCOCC1,–,inactive: -8.69%
Cc1nnc(SCCCn2c(N3CCN(c4ccccc4)CC3)nc3c2c(=O)[nH]c(=O)n3C)s1,"inconclusive: 18.4 µM [cytotoxic, single point]",–
Cc1cc(C)nc(NC2=NCC(=O)N2c2ccccc2Br)n1,"inconclusive: 10.3 µM [rising, partial curve]",–
CCN(C(C)=O)c1cnc(C=NNC(N)=S)c2ccccc12,active: 14.6 µM,–
COC(=O)c1cccc(Nc2c(-c3ccc(SC)cc3)nc3nc[nH]n23)c1,–,inactive: 6.04%
O=C(NCCCNC(=O)c1ccco1)c1ccc(Cl)c(Cl)c1,"inconclusive: 20.6 µM [rising, single point]",–
CCCN1C2CCCC1CC(NC(=O)C1CCCCC1)C2 (stereo not drawn),–,inactive: 4.05%
Cc1cc(=O)n2[nH]c(C)cc2n1,–,inactive: -9.41%
Cc1nc(N/N=C/c2ccc(O)cc2O)cc(N2CCOCC2)n1,"inconclusive: 11.6 µM [cytotoxic, partial curve]",–
Cc1ccc(OCC(=O)NNC(=O)[C@@H]2CCCC[C@@H]2C(=O)O)c(Br)c1,"inconclusive: 29.1 µM [rising, single point]",–
Cc1nn(S(=O)(=O)c2ccc([N+](=O)[O-])cc2)c(C)c1Sc1ccccc1,"inconclusive: 18.4 µM [cytotoxic, single point]",–
O=C(CSc1nc2ccccc2o1)Nc1ccccc1N1CCOCC1,"inconclusive: 20.6 µM [cytotoxic, partial curve]",–
COc1ccccc1N1CCN(CCCNC(=O)Nc2ccccc2)CC1,–,inactive: -11.4%
CN(C)c1cccc(CNC(=O)c2csc([C@@H]3C[C@H](O)[C@@H](CO)O3)n2)c1,–,inactive: 6.7%

# Reference: PubChem BioAssay AID1347076 (National Center for Advancing Translational Sciences (NCATS), 2019)
